# Measured values from PubChem BioAssay AID2685 (National Center for Advancing Translational Sciences (NCATS), 2010).
# The other results are listed elsewhere or left out. Shown are side measurements of this screen, not its main read-out; they come without a call. The list favours compounds with an active or inconclusive main result. Potencies come from curve fits of mixed quality, noted in brackets.
# Experiment: qHTS Assay for Lipid Storage Modulators in Drosophila S3 Cells;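 as to cell number change: cells counted by Cell Tracker Red CMTPX staining in the red channel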
# Details: BODIPY lipid droplet fluorescence, 18-24 h; for cell number change: measured here: cell count max response, cells fed with added oleic acid
# In short: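 Drosophila S3 cells loaded with oleic acid (400 uM, as added) and compounds at several concentrations; lipid droplets imaged by 488-nm laser-scanning cytometry, 500–530 nm intensity and object ratio to cell channel. Percent activity normalized to 20 uM Triacsin C.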
# [1] = measured here: lipid fluorescence (Fed channel) AC50, cells fed with added oleic acid
# [2] = measured here: cell number channel AC50, cells fed with added oleic acid
Compound,cell number change [%],AC50 [1],AC50 [2]
Cc1ccc(Cl)cc1NC(=O)CCN1C(=O)C2C3CCC(C3)C2C1=O (centres undefined),-6.23,"4.11 µM [falling, single point]",
CC(=O)Cc1nsc(NC(=O)c2cc(-c3cccc(C(F)(F)F)c3)oc2C)n1,,"1.64 µM [rising, partial curve]","1.46 µM [rising, partial curve, poor fit]"
COc1cc(/C=N/n2c(COc3ccccc3)n[nH]c2=S)cc(OC)c1OC(C)=O,-1.39,"4.11 µM [rising, partial curve]",
Cc1ccc(CN2CCN(Cc3ccc(-n4cccn4)cc3C)CC2CCO)cc1 (centres undefined),7.85,"0.164 µM [rising, full curve, poor fit]",
Cc1cccc(C)c1N(CC(=O)N(C)Cc1ccccc1)S(C)(=O)=O,28.5,"4.11 µM [rising, single point]","3.66 µM [rising, full curve, poor fit]"
Cc1c(CN2CCCC(C)C2)c(O)n(CCO)c(=O)c1C#N (centres undefined),-12.3,"0.082 µM [falling, full curve, poor fit]",
CCOC(=O)C(C#N)=C1CCN(Cc2ccccc2)CC1,-9.6,,"0.00461 µM [falling, full curve, poor fit]"
CCOc1ccc(NC(=O)CN(C)C(=O)c2cc(S(=O)(=O)N3CCCCC3)ccc2C)cc1OCC,,"3.66 µM [rising, single point]",
COc1cccc(CNC(=O)c2ccc(CS(=O)(=O)Cc3ccccc3C)o2)c1,-22.1,"29.1 µM [falling, single point]",
O=C(CN(c1cc(C(F)(F)F)ccc1Cl)S(=O)(=O)c1ccccc1)NCc1cccnc1,-17,,
O=C(Nc1ccccc1)C1CCCN1/C=C/C(=O)C(F)(F)F (centres undefined),14.7,"32.6 µM [rising, single point]",
CC(=O)c1cccc(CN2CCCC(C(=O)Nc3ccc(-c4ccco4)cc3)C2)c1 (centres undefined),13.4,"35.5 µM [rising, single point]",
COC(=O)c1sccc1NC(=O)c1ccc(Br)o1,-25.1,"0.291 µM [rising, partial curve, poor fit]",
C=CCn1c(C)cc(-c2csc(NC)n2)c1C,-3.25,"29.1 µM [falling, single point]",
CCC(C)NC(=O)c1n[nH]c(=O)c2ccccc12 (centres undefined),-6.04,"3.26 µM [falling, full curve]",
CCN(CC)C(=O)N1CCC(NC(=O)c2ccccc2)CC1,-88.1,"6.51 µM [falling, partial curve]","5.8 µM [falling, partial curve]"
C=CCn1c(=N)c(C(=O)OCC)cc2c(=O)n3cc(C)ccc3nc21,-1.75,"14.6 µM [rising, single point]",
COc1ccc(CCNC(=O)COC(=O)c2ccc[nH]c2=O)cc1,,,"0.58 µM [falling, single point]"
Oc1[nH]c2ccccc2c1N=NC(=S)N1CCOCC1,-50.9,"1.84 µM [falling, full curve]","11.6 µM [falling, partial curve]"

# 12 structures from above, ordered by heavy-atom count, ascending.
Compound,cell number change [%],AC50 [1],AC50 [2]
C=CCn1c(C)cc(-c2csc(NC)n2)c1C,-3.25,"29.1 µM [falling, single point]",
CCC(C)NC(=O)c1n[nH]c(=O)c2ccccc12 (centres undefined),-6.04,"3.26 µM [falling, full curve]",
Oc1[nH]c2ccccc2c1N=NC(=S)N1CCOCC1,-50.9,"1.84 µM [falling, full curve]","11.6 µM [falling, partial curve]"
CCOC(=O)C(C#N)=C1CCN(Cc2ccccc2)CC1,-9.6,,"0.00461 µM [falling, full curve, poor fit]"
O=C(Nc1ccccc1)C1CCCN1/C=C/C(=O)C(F)(F)F (centres undefined),14.7,"32.6 µM [rising, single point]",
COc1ccc(CCNC(=O)COC(=O)c2ccc[nH]c2=O)cc1,,,"0.58 µM [falling, single point]"
Cc1cccc(C)c1N(CC(=O)N(C)Cc1ccccc1)S(C)(=O)=O,28.5,"4.11 µM [rising, single point]","3.66 µM [rising, full curve, poor fit]"
CC(=O)Cc1nsc(NC(=O)c2cc(-c3cccc(C(F)(F)F)c3)oc2C)n1,,"1.64 µM [rising, partial curve]","1.46 µM [rising, partial curve, poor fit]"
COc1cccc(CNC(=O)c2ccc(CS(=O)(=O)Cc3ccccc3C)o2)c1,-22.1,"29.1 µM [falling, single point]",
CC(=O)c1cccc(CN2CCCC(C(=O)Nc3ccc(-c4ccco4)cc3)C2)c1 (centres undefined),13.4,"35.5 µM [rising, single point]",
O=C(CN(c1cc(C(F)(F)F)ccc1Cl)S(=O)(=O)c1ccccc1)NCc1cccnc1,-17,,
CCOc1ccc(NC(=O)CN(C)C(=O)c2cc(S(=O)(=O)N3CCCCC3)ccc2C)cc1OCC,,"3.66 µM [rising, single point]",

# Remaining list, next part.

Compound,cell number change [%],AC50 [1],AC50 [2]
CN(C(=O)COC(=O)c1ccc2c(c1)OCCO2)C1CCCCC1,,,"0.0058 µM [falling, full curve, poor fit]"
Cc1cc(C)cc(OCc2ccc(C(=O)N3N=C(C(F)F)CC3(O)C(F)F)o2)c1 (centres undefined),-33.3,,"0.0058 µM [falling, full curve, poor fit]"
COc1ccc(NC(=O)C2C3C=CC(C3)C2C(=O)O)cc1 (centres undefined),-2.56,,"1.46 µM [rising, partial curve]"
COc1ccc2c(c1)[nH]c(=O)c1sc3ccccc3c12,-30.4,"3.26 µM [falling, partial curve, poor fit]","4.11 µM [falling, full curve, poor fit]"
NC(=O)C(Cc1ccccc1)NS(=O)(=O)c1ccc(N2CCCC2=O)cc1 (centres undefined),11.9,"1.16 µM [falling, full curve]",
CCC(=O)Nc1ccc(NC(=O)c2cccc3c(Br)cccc23)cc1,2.47,"29.1 µM [falling, single point]",
Cc1ccc(NS(=O)(=O)c2ccc(Cl)c(C(=O)Nc3ccccc3-c3nc4ccccc4[nH]3)c2)cc1C,-31.2,"29.1 µM [falling, single point]","2.59 µM [rising, single point]"
COCc1c(C(=O)N2CCN(Cc3ccc(C#N)cc3)CC2)oc2ccccc12,21.4,"25.9 µM [falling, single point]","0.00461 µM [rising, full curve, poor fit]"
COC(=O)C(C)(C)ONC(=O)Nc1ccccc1Br,1.93,"29.1 µM [rising, single point]",
COc1ccc(NC(=S)NCCc2ccc(Cl)cc2)c(OC)c1,18.3,,
CCCn1c(N)c(C(=O)CSc2nnc3n2CCCCC3)c(=O)n(C)c1=O,-11.2,"0.517 µM [rising, single point]",
Cc1ccc(SC2CC(=O)N(c3ccc4c(c3)OCCO4)C2=O)cc1 (centres undefined),-30,"31.6 µM [falling, single point]","25.1 µM [falling, single point]"
COC(=O)NNC(=O)COc1ccc2ccccc2c1Br,-50,,"29.1 µM [falling, single point]"
CNC(=O)C1CC(=O)N(c2ccc(OCC(=O)Nc3ccccc3C)cc2)C1 (centres undefined),-95.8,,"20.6 µM [falling, single point]"
COc1ccc2c(C)cc(SCC(=O)Nc3ncc(Cl)cc3Cl)nc2c1,11.4,,"6.51 µM [rising, single point]"
O=C(Nc1ccccc1NC(=O)c1ccccc1F)c1ccccc1F,6.67,"29.1 µM [rising, single point]",
Cc1oc(/N=C/c2cccc([N+](=O)[O-])c2)c(C#N)c1C,,"0.116 µM [falling, full curve, poor fit]",
CCOC(=O)c1c(CSC(=N)N)n(-c2ccc(Br)cc2)c2cc(Br)c(OC(C)=O)cc12,-84.8,"29.1 µM [falling, single point]","29.1 µM [falling, single point]"
Cc1ccc(-c2nnc3cccc(Cl)n23)cc1,16.4,,"5.8 µM [rising, partial curve, poor fit]"

Compound,cell number change [%],AC50 [1],AC50 [2]
CC1(C)CC(C(=O)Nc2nccs2)CCO1 (centres undefined),4.61,,
COC(=O)C(C)NS(=O)(=O)c1ccc(NC(C)=O)cc1 (centres undefined),2.7,"0.116 µM [falling, full curve, poor fit]","0.651 µM [falling, single point]"
COc1cc(NC(=O)c2ccc(C)cc2C)ccc1NC(=O)c1cccs1,-7.62,,
CCC(=O)Nc1ccc(C(=O)CSc2nnc(-c3cccnc3)o2)cc1,,"7.31 µM [falling, single point]",
CC(=O)c1ccc(N2CCN(S(=O)(=O)c3cc(-c4cc(C)no4)ccc3C(C)C)CC2)cc1,-31.5,"2.31 µM [falling, partial curve, poor fit]","13 µM [falling, partial curve, poor fit]"
O=C(N/N=C/c1cccnc1)c1cc(-c2ccccc2)nc2ccccc12,10.4,"0.517 µM [rising, full curve, poor fit]",
CCN1CCN(C(=S)c2ccc(OC)cc2)CC1,-9.54,"0.103 µM [falling, partial curve, poor fit]","1.03 µM [rising, full curve, poor fit]"
COc1cccc(C2/C(=C(\O)c3ccc4c(c3)OCCO4)C(=O)C(=O)N2c2nnc(C)s2)c1 (centres undefined),19.8,,"0.13 µM [rising, full curve, poor fit]"
Cc1ccc2cc(CCNC(=O)c3ccc(C)c([N+](=O)[O-])c3)c(=O)[nH]c2c1,-6.97,,
Cc1ccc(NC(=O)CCCN2C(=S)NC(C)(C)CC2C)cc1 (centres undefined),43.6,"29.1 µM [rising, single point]",
Cc1scc(C(=O)N/N=C/c2ccc(Cl)s2)c1C,11.7,"2.91 µM [rising, partial curve]",
COc1ccc(CC(=O)N2CC(C)CC(C)C2)cc1OC (centres undefined),,"5.8 µM [falling, single point]",
COc1ccc(C(=O)Cc2ccc(OC)c(OC)c2)c(OC)c1,5.69,"3.66 µM [rising, partial curve]","0.411 µM [rising, full curve]"
COc1ccc(C(=O)CSc2nnc(NC(=O)C3CC(=O)N(c4ccccc4C)C3)s2)cc1 (centres undefined),4.5,"0.0259 µM [rising, full curve, poor fit]",
CC(=O)Nc1cccc(NC(=O)c2c(-c3ccccc3Cl)noc2C)c1,26,"10.3 µM [rising, partial curve]",
CC(C)N(C(=O)COC(=O)[C@@H]1CC(O)CN1S(=O)(=O)c1ccccc1[N+](=O)[O-])C(C)C (some centres undefined),-8.22,"10.3 µM [falling, partial curve]",
CCc1nnc(NC(=O)C2CCC(CNc3c(N4CCC(C)CC4)c(=O)c3=O)CC2)s1 (centres undefined),0.136,"1.16 µM [falling, full curve]",
Fc1ccccc1N1CCN(c2nc(-c3cccs3)nc3ccccc23)CC1,31,"2.31 µM [rising, partial curve, poor fit]","1.03 µM [rising, full curve, poor fit]"
